Data on 20 compounds can be found in the supplement of paper PMC12889115.

The list shows a part of the results. These are raw signals, not scaled to a control.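 Primary screen: polymyxin B was added at a level permeabilizing Salmonella outer membranes while sparing inner membranes. DMSO wells, both with and without polymyxin B, established maximum growth. Plate-to-plate variation meant each plate was ranked on its own, and the lowest-OD600 compounds were selected as hits.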

The experiment concerns Salmonella enterica serovar Typhimurium SL1344. Nature of the experiment: bacterial growth OD600 after 18 h with compound and polymyxin B; higher = more bacterial growth (less inhibition). As to conditions: 50 µM, Mueller-Hinton broth.

Turning to `CN(Cc1ccccc1)Cc1cc(C(=O)NCc2cnc3ccccc3c2)no1`, the “bacterial growth OD600” value (polymyxin B 1 µg/mL) was found to be 0.886.
Still for that read-out and setting: under `Fc1ccc(Oc2ncccc2CNC2CCSCC2)cc1F` stands 0.827; under `CCCN(CC1CCCO1)C(=O)c1csc2nc(-c3ccccc3C)cn12` (stereo not given), 0.019.
In the case of `O=C(c1ccncc1)N1CCc2onc(-c3ccc(C(F)(F)F)cc3)c2C1`, the “bacterial growth OD600” value (polymyxin B 0.75 µg/mL) was found to be 0.993.
The same measure, in the same setting: the figure for `C[C@@H]1CN(C(=O)C2CCN(c3nc(-c4ccccc4)nc4c3CCC4)CC2)C[C@H](C)O1` is 0.847.
Regarding `c1ccc(CN(CC2CCN(C3Cc4ccccc4C3)CC2)CC2CCCO2)nc1` (stereo not given), the “bacterial growth OD600” value (polymyxin B 1 µg/mL) worked out at 0.656.
On the same count and under the same terms, the figure for `O=C(NCCCc1ccccc1)C1CCC(=O)N(Cc2ccc(Cl)cc2)C1` (stereo not given) is 0.752.
Same read-out and setting: under `CCOC(=O)C1CCCN(C(=O)c2cc(COc3ccc4c(c3)OCO4)[nH]n2)C1` (stereo not given) stands 0.966; under `COc1ccc(OC2CCN(C(=O)C3CC3)CC2)c(C(=O)NCc2ccccc2C)c1`, 1.01; under `C1CCC(Nc2nc3nonc3nc2NCC2CCOCC2)C1`, 0.876.
For the compound `Cc1nc(N2CCC(N(C)C(C)C)CC2)nc2cc3c(cc12)CCC3`, for the setting “polymyxin B 0.75 µg/mL”, the “bacterial growth OD600” value came out at 0.591.
For `COc1ccc(OCc2cc(C(=O)N(C)C(C)c3ccncn3)n[nH]2)c(Cl)c1` (stereo not given), the “bacterial growth OD600” value (polymyxin B 1 µg/mL) is 0.996.
As to `c1ccc(OCc2noc(-c3ccc(NCCN4CCCC4)nc3)n2)cc1`, the “bacterial growth OD600” value (polymyxin B 1 µg/mL) came to 0.716.
Consider `Cc1nc(N2CCC(C(=O)N(C)CCC3CCCCO3)CC2)nc2cc(S(C)(=O)=O)ccc12` (stereo not given), for which the “bacterial growth OD600” value (polymyxin B 0.75 µg/mL) was determined as 0.79.
As for `CC1(C)Cc2c(cnn2-c2ccccc2)C(NC(=O)/C=C/c2c[nH]cn2)C1` (stereo not given), the “bacterial growth OD600” value (polymyxin B 1 µg/mL) was determined as 0.922.
In the case of `O=C(C(=O)N1CCC(C2CCN(CCc3ccccc3)C2)CC1)c1ccccc1` (stereo not given), the “bacterial growth OD600” value (polymyxin B 0.75 µg/mL) came to 0.797.
Still for that read-out and setting: under `COc1cccc(CN2CCOc3ccc(C(C)(O)COc4ccccc4)cc3C2)c1` (stereo not given) stands 0.422.
For `COc1ccc(C(=O)NCc2cccc(C)c2)cc1OC1CCN(C(C)=O)CC1`, where the note is “polymyxin B 1 µg/mL”, the “bacterial growth OD600” value is 1.08.
For `COc1cc(CC2(CCC(=O)NCCCn3nnc4ccccc43)CCC(=O)N2)ccc1F` (stereo not given), under “polymyxin B 0.75 µg/mL”, the “bacterial growth OD600” value turned out to be 0.984.
On to `O=C(C1CC1)N1CCC(Oc2ccc(C(=O)N3CCCCO3)cc2)CC1`, for which the “bacterial growth OD600” value (polymyxin B 1 µg/mL) worked out at 1.02.
